{
  "source": "PubChem BioAssay AID1259415",
  "about": "(National Center for Advancing Translational Sciences (NCATS), 2018)",
  "note": "The campaign covered roughly 410,000 compounds. About 18,000 (4.4%) were called active. Inconclusive results, whose numbers are uncertain, are shown with a selection of clear calls. Rule as the data show it: active = activity change below about -60%; inconclusive = no clear call, values can overlap the other calls; inactive = above about -39%. % is scaled to controls: 0 for no effect and ±100 for the full control effect.",
  "data": [
    {"assay": "qHTS Assay for inhibitors of the human cytomegalovirus (HCMV)", "settings": "HFF cells, HCMV-luciferase reporter, 72 h; at 57.5 µM; active compounds read low", "how_it_was_run": "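Two-dose cell screen: HFF monolayers treated with compounds and infected with luciferase-expressing HCMV at 1 PFU/cell, 72 h at 37C, then lysed for luciferase measurement.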", "values": [
      {"compound": "COC(=O)CCCCCN1C(=O)/C(=C\\c2ccncc2)SC1=S", "activity change, negative = inhibition": "inconclusive: -40.2%"},
      {"compound": "Cc1ccc(-c2[nH]nc3c2C(c2cccnc2)C(C#N)=C(N)O3)cc1", "note": "(configuration not stated)", "activity change, negative = inhibition": "inconclusive: -48.3%"},
      {"compound": "CCOc1cc(/C=N\\NC(=O)Cc2ccccc2)ccc1OCC(=O)Nc1ccc(C)c(C)c1", "activity change, negative = inhibition": "inconclusive: -50.8%"},
      {"compound": "Nc1c(C(=O)Nc2ccc(Cl)cc2)sc2nc(N3CCOCC3)c3c(c12)CCCC3", "activity change, negative = inhibition": "inconclusive: -47.7%"},
      {"compound": "COCCCNC(=O)CC(c1cc(OC)c(OC)c(OC)c1)N1Cc2ccccc2C1=O", "note": "(configuration not stated)", "activity change, negative = inhibition": "inactive: 6.82%"},
      {"compound": "CC1CCCCN1CCCNC(=O)c1c(O)nc2ccccn2c1=O", "note": "(configuration not stated)", "activity change, negative = inhibition": "inactive: -38%"},
      {"compound": "O=c1[nH]c(SCc2nc3ccccc3c(=O)n2-c2ccccc2C(F)(F)F)nc2ccccc12", "activity change, negative = inhibition": "inconclusive: -52.2%"},
      {"compound": "Cc1ccc2c(CC(=O)N3CCN(S(=O)(=O)c4ccccc4)CC3)coc2c1", "activity change, negative = inhibition": "inactive: 4.47%"},
      {"compound": "CCn1nc(NC(=O)Cc2ccc(OC)cc2)c2cc3cccc(C)c3nc21", "activity change, negative = inhibition": "inconclusive: -45%"},
      {"compound": "Fc1ccc(NC(=S)NCc2cccs2)cc1", "activity change, negative = inhibition": "inconclusive: -50.1%"},
      {"compound": "Cc1cc(=O)[nH]c(SCC(=O)Nc2ccc(S(N)(=O)=O)cc2)n1", "activity change, negative = inhibition": "active: -61.4%"},
      {"compound": "COc1ccc(Nc2cc3c(cn2)cc(-c2cccc(C(F)(F)F)c2)n3C)c(OC)c1", "activity change, negative = inhibition": "inactive: -0.744%"},
      {"compound": "O=C(O)c1cc2cccc(S(=O)(=O)N3CCCCC3)c2cc1O", "activity change, negative = inhibition": "inconclusive: -49%"},
      {"compound": "CCc1cc2c(cc3c(=O)n(CCCC(=O)NCc4ccccc4Cl)nc(CC)n32)s1", "activity change, negative = inhibition": "inactive: 62.2%"},
      {"compound": "Cc1ccc(S(=O)(=O)NCC2CCC(C(=O)NCCCN3CCCC3=O)CC2)cc1", "note": "(configuration not stated)", "activity change, negative = inhibition": "active: -62.1%"},
      {"compound": "Brc1c(-c2ccccc2)nc2n1Cc1ccccc1-2", "activity change, negative = inhibition": "active: -83.9%"},
      {"compound": "COc1cccc(-n2c(C)nc3ccccc3c2=O)c1", "activity change, negative = inhibition": "inactive: -0.969%"},
      {"compound": "Cc1noc(/C=C/c2ccco2)c1S(=O)(=O)N1CCC(C(=O)Nc2ccc(F)cc2F)CC1", "activity change, negative = inhibition": "inconclusive: -60%"},
      {"compound": "COc1cc(NC(=S)N2CCN(c3ccccn3)CC2)cc(OC)c1OC", "activity change, negative = inhibition": "inactive: -31.9%"},
      {"compound": "O=c1[nH]c(NNC(=S)NCc2ccccc2)nc2c1C1(CCCCC1)Cc1ccccc1-2", "activity change, negative = inhibition": "active: -62.3%"},
      {"compound": "O=C(NCC1CCCO1)c1cncc(Br)c1", "note": "(configuration not stated)", "activity change, negative = inhibition": "inactive: -29%"},
      {"compound": "CCOc1ccc(NC(=O)COC(=O)C2(C)CC2(Cl)Cl)c([N+](=O)[O-])c1", "note": "(configuration not stated)", "activity change, negative = inhibition": "inactive: -27.4%"},
      {"compound": "COc1cccc(C(=O)NC2CCCc3c2cnn3-c2cc(C)cc(C)c2)c1", "note": "(configuration not stated)", "activity change, negative = inhibition": "inconclusive: -44.5%"},
      {"compound": "COc1ccccc1CCNC(=O)CCn1c(=O)c2cccn2c2ccc(F)cc21", "activity change, negative = inhibition": "inconclusive: -48.2%"},
      {"compound": "Cc1cc(C)cc(NC(=O)CSCn2nnc3c(=O)[nH]c(Cc4ccc(F)cc4)nc32)c1", "activity change, negative = inhibition": "inactive: -0.478%"},
      {"compound": "O=C(O)CSc1ncnc2nc[nH]c12", "activity change, negative = inhibition": "inactive: -1.84%"},
      {"compound": "Cn1c(NC(=O)c2ccccc2)nc2ccccc21", "activity change, negative = inhibition": "active: -84.9%"},
      {"compound": "CCCn1c(N)c(C(=O)NS(=O)(=O)c2ccc(C)cc2)c(=O)n(C)c1=O", "activity change, negative = inhibition": "inconclusive: -50.6%"},
      {"compound": "Cc1ccsc1C(=O)OCC(=O)N(Cc1ccccc1)C(C)C", "activity change, negative = inhibition": "inactive: -20.7%"},
      {"compound": "Clc1ccc2nc(CN3CCCCC3)cn2c1", "activity change, negative = inhibition": "inconclusive: -51.4%"},
      {"compound": "CCCCC(CC)CNCC(O)c1ccccc1", "note": "(configuration not stated)", "activity change, negative = inhibition": "inconclusive: -47.3%"},
      {"compound": "COc1cc(C(=S)N2CCOCC2)ccc1OC(=O)Cc1ccc(F)cc1", "activity change, negative = inhibition": "inconclusive: -54.3%"},
      {"compound": "CCCS(=O)(=O)c1nc(S(=O)(=O)c2ccc(C)cc2)c(N2CCc3ccccc3C2)s1", "activity change, negative = inhibition": "inconclusive: -43.4%"},
      {"compound": "O=S(=O)(c1cccs1)N1CCC[C@@H]1c1noc2ccccc12", "activity change, negative = inhibition": "inconclusive: -42.8%"},
      {"compound": "COc1ccc(OC)c(CCNC(=O)c2cc3c(-c4ccccc4F)nn(C)c3s2)c1", "activity change, negative = inhibition": "active: -89.9%"},
      {"compound": "Cc1ccc(Cn2c(N)nc3ccccc32)cc1", "activity change, negative = inhibition": "inconclusive: -45%"},
      {"compound": "Cc1cc2nn(-c3ccc(Cl)cc3)nc2cc1NC(=O)C(C)C", "activity change, negative = inhibition": "active: -64.3%"},
      {"compound": "O=C(NCC1CCCO1)c1cc2nc(-c3ccco3)cc(C(F)(F)Cl)n2n1", "note": "(configuration not stated)", "activity change, negative = inhibition": "inactive: 3.85%"},
      {"compound": "O=C(Nc1ccc(C(=O)N2CCOCC2)cc1)c1cc(-c2cccnc2)nc2ccc(Cl)cc12", "activity change, negative = inhibition": "active: -68.8%"},
      {"compound": "COc1ccc(-n2c(C)cc(/C=C/c3nc(O)c([N+](=O)[O-])c(=O)[nH]3)c2C)cc1", "activity change, negative = inhibition": "active: -61.5%"},
      {"compound": "COc1cc(NC(=O)COc2ccc(-n3ccnc3)cc2)cc(OC)c1", "activity change, negative = inhibition": "active: -86.7%"},
      {"compound": "O=C(Nc1ccn(-c2ccccc2)n1)c1ccc(S(=O)(=O)N2CCCCCC2)cc1", "activity change, negative = inhibition": "inconclusive: -48.4%"},
      {"compound": "CCOc1ccc(OCC)c(NC(=O)c2cc(C)nc3c2c(C)nn3-c2cccc(Cl)c2C)c1", "activity change, negative = inhibition": "inactive: 5.03%"},
      {"compound": "O=C(CCNC(=O)c1ccc([N+](=O)[O-])cc1)NCc1ccco1", "activity change, negative = inhibition": "active: -72%"},
      {"compound": "Cc1ccc(S(=O)(=O)Nc2cc(C(=O)N3CCOCC3)ccc2N2CCCCC2)cc1", "activity change, negative = inhibition": "inconclusive: -43.1%"},
      {"compound": "CN(C)c1ccc(C=c2c3cc(O)ccc3n3c2cc(-c2ccccc2)[n+]3C)cc1", "activity change, negative = inhibition": "active: -101%"},
      {"compound": "COc1ccc(CN2C(=O)c3cccnc3C2=O)cc1S(=O)(=O)NC1CCCCC1C", "note": "(configuration not stated)", "activity change, negative = inhibition": "inactive: 0%"},
      {"compound": "O=C(NC1CCCCC1)c1ccc(Cn2c(SCc3cccc(F)c3)nc3cccnc32)cc1", "activity change, negative = inhibition": "inconclusive: -51.1%"},
      {"compound": "CC(C)CCC(CCN1CCCC1)c1ccc2c(c1)OCO2", "note": "(configuration not stated)", "activity change, negative = inhibition": "inactive: 9.16%"},
      {"compound": "Cc1ccc(NCc2cccnc2)cc1", "activity change, negative = inhibition": "inactive: -6.47%"},
      {"compound": "Cc1ccc2nc(SCC(=O)N3CCCCCC3)nc(=O)n2c1", "activity change, negative = inhibition": "inconclusive: -41.4%"},
      {"compound": "Cc1cccc(N2CCN(C(=O)Cn3c(=O)c4cccn4c4ccc(F)cc43)CC2C)c1", "note": "(configuration not stated)", "activity change, negative = inhibition": "inactive: 2.31%"},
      {"compound": "Cc1ccc(C2=NN(CCC(=O)N3CCC4(CC3)OCCO4)C(=O)CC2)cc1", "activity change, negative = inhibition": "inconclusive: -40.2%"},
      {"compound": "O=C(Nc1ccc(N2CCN(Cc3ccccc3Cl)CC2)cc1)c1cccnc1", "activity change, negative = inhibition": "active: -63.9%"},
      {"compound": "CCN1/C(=C/C=C/C2=[N+](CC)c3ccccc3C2(C)C)C(C)(C)c2ccccc21", "activity change, negative = inhibition": "active: -98.7%"},
      {"compound": "CC(=O)Nc1ccc(NC(=O)CSc2ccccn2)cc1", "activity change, negative = inhibition": "inconclusive: -50.4%"},
      {"compound": "Cc1ccc2[nH]cc(C(c3ccccc3)c3cccs3)c2c1", "note": "(configuration not stated)", "activity change, negative = inhibition": "active: -79.4%"}
    ]}
  ]
}
